Test [1] deals with T1, PSPC1 (paraspeckle component 1) (human (endogenous in MIAPaCa-2)) (UniProt Q8WXF1).
T1 sequence: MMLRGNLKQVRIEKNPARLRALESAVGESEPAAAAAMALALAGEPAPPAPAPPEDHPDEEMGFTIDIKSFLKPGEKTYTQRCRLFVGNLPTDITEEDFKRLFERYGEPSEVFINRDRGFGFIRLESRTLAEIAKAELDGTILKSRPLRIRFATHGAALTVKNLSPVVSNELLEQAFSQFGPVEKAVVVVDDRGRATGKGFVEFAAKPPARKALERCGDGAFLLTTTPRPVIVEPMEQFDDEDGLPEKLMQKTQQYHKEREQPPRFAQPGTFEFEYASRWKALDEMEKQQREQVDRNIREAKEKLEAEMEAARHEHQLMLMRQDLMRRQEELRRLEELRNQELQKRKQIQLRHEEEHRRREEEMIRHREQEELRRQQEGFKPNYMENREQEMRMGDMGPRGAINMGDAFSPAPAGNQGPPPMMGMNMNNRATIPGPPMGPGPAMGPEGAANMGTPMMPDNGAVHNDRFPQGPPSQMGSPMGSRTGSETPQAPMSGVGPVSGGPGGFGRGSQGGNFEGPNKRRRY
Nature of the test: co-IP; endogenous proteins; cells lysed in IP lysis buffer with proteinase inhibitor, lysate precleared, anti-PSPC1 or anti-β-catenin antibody overnight, A/G dynabeads 4 h at 4 °C, elution in Laemmli buffer, western blot; also done in CASC19 overexpressing cells.

Chains of the proteins cited; added tags and fusions are not shown.
UniProt P35222: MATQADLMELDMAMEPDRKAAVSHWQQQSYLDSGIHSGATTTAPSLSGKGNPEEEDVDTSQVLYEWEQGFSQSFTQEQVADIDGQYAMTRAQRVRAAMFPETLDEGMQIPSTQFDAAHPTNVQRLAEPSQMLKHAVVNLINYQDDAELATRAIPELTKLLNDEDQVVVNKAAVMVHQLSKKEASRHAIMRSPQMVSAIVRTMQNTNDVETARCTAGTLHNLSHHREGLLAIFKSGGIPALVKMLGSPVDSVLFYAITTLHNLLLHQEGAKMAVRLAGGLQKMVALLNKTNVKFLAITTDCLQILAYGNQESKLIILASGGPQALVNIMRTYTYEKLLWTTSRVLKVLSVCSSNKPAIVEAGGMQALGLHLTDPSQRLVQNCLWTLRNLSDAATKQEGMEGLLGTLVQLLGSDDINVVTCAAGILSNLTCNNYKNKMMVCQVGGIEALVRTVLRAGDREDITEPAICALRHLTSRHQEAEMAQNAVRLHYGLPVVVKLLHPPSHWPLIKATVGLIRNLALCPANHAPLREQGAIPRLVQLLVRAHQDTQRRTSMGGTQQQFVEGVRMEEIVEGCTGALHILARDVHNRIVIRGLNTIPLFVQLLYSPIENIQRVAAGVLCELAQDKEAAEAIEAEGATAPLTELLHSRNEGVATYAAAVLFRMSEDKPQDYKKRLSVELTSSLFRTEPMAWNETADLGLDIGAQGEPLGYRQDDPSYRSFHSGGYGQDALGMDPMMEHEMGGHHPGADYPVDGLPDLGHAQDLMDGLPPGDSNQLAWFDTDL

The target in test [2] is β-Catenin (human (endogenous in MIAPaCa-2)) (UniProt P35222). The test is described as above.

These are yes or no findings as the source states them, for the method shown. Binding seen in cells or lysates may run through a third protein. Some binding calls cover weakened binding; strength is not graded here.

With β-Catenin (from UniProt P35222 1-781), in test [1], the binding entry is given as “binds”.

B1: PSPC1 (paraspeckle component 1) (protein, UniProt Q8WXF1 1-523)
chain: T1 sequence
In the case of B1, the binding entry in test [2] is “binds”.

(Values after PMC12482102.)
